Data source: PubChem BioAssay AID1224828 (NIAID, 2016)
Test: 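Regulators linking TLR4 signalling to p65 nuclear translocation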 (primary screen). Cells: mouse RAW264.7 G9 macrophage reporter cells (GFP-p65, Tnf promoter-mCherry). Reagent: siRNA pool against mouse genes, 100 nM. Timing: 2 days siRNA transfection, then 40 min LPS before fixation. Conditions: LPS (Salmonella minnesota R595) at 10 ng/ml. Measured: 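Microscopy ratio of nuclear to perinuclear-ring GFP-p65 signal, scaled to the plate median; gene score is the average of two replicate robust z-scores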. Direction: p65 translocation robust z-score: higher = more nuclear NF-kappaB p65 after LPS than the plate median; nuclear/cytoplasmic p65 ratio: higher = more nuclear NF-kappaB p65. Rule for the call: 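Active if robust z is above 3.3 (negative regulators) or below -1.56, the Tlr4 control median (positive regulators); activity score 50 or more; control wells not called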. Calls: active = hit (p65 shift raised or lowered); inactive = no clear change.
Shown is one part, drawn at random, of about 17,000 reagents. In the full data, 762 (4.5%) got an active call. 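Active calls include both raised and lowered p65 entry, mostly lowered; wells with fewer than 50 cells lack a z-score.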 Raw values vary from plate to plate and are shown uncorrected.

With knock-down of Mvb12a [SID315474769], the screen gave nuclear/cytoplasmic p65 ratio, rep 1 = 1.69; nuclear/cytoplasmic p65 ratio, rep 2 = 1.47; low cell count flag fewer than 50 cells per well; well left out of scoring; inactive.
With knock-down of Zfp454 [SID315479362], the record shows p65 translocation robust z-score 0.82; nuclear/cytoplasmic p65 ratio, rep 1 = 1.58; nuclear/cytoplasmic p65 ratio, rep 2 = 1.29; low cell count flag enough cells to score; inactive.
For Wnt9b [SID315470040], the values are p65 translocation robust z-score -0.61; nuclear/cytoplasmic p65 ratio, rep 1 = 1.52; nuclear/cytoplasmic p65 ratio, rep 2 = 1.33; low cell count flag enough cells to score; inactive.
Ropn1l [SID315479920] scored p65 translocation robust z-score -0.85; nuclear/cytoplasmic p65 ratio, rep 1 = 1.48; nuclear/cytoplasmic p65 ratio, rep 2 = 1.33; low cell count flag enough cells to score; inactive.
With knock-down of Psmb7 [SID315468743], the record shows p65 translocation robust z-score 0.31; nuclear/cytoplasmic p65 ratio, rep 1 = 1.54; nuclear/cytoplasmic p65 ratio, rep 2 = 1.14; low cell count flag enough cells to score; inactive.
Against Chi3l1 [SID315465957], the entry reads p65 translocation robust z-score -0.1; nuclear/cytoplasmic p65 ratio, rep 1 = 1.55; nuclear/cytoplasmic p65 ratio, rep 2 = 1.8; low cell count flag enough cells to score; inactive.
Against Esx1 [SID315466567] the deposit lists p65 translocation robust z-score -0.75; nuclear/cytoplasmic p65 ratio, rep 1 = 1.46; nuclear/cytoplasmic p65 ratio, rep 2 = 1.31; low cell count flag enough cells to score; inactive.
After knock-down of Rec8 [SID315471663], the record shows p65 translocation robust z-score 1.12; nuclear/cytoplasmic p65 ratio, rep 1 = 1.73; nuclear/cytoplasmic p65 ratio, rep 2 = 1.62; low cell count flag enough cells to score; inactive.
For Polr2a [SID315469030], the values are nuclear/cytoplasmic p65 ratio, rep 1 = 0; nuclear/cytoplasmic p65 ratio, rep 2 = 1.1; low cell count flag fewer than 50 cells per well; well left out of scoring; inactive.
Against Mip [SID315467926], the entry reads p65 translocation robust z-score -0.11; nuclear/cytoplasmic p65 ratio, rep 1 = 1.46; nuclear/cytoplasmic p65 ratio, rep 2 = 1.3; low cell count flag enough cells to score; inactive.
Knock-down of Lrrc49 [SID315476347] came out at: p65 translocation robust z-score -0.19; nuclear/cytoplasmic p65 ratio, rep 1 = 1.52; nuclear/cytoplasmic p65 ratio, rep 2 = 1.54; low cell count flag enough cells to score; inactive.
Against Mmp1a [SID315475885], the entry reads p65 translocation robust z-score 0.73; nuclear/cytoplasmic p65 ratio, rep 1 = 1.53; nuclear/cytoplasmic p65 ratio, rep 2 = 1.45; low cell count flag enough cells to score; inactive.
Against Snrpd1 [SID315469366], the entry reads nuclear/cytoplasmic p65 ratio, rep 1 = 1.17; nuclear/cytoplasmic p65 ratio, rep 2 = 1.02; low cell count flag fewer than 50 cells per well; well left out of scoring; inactive.
Knock-down of Nt5dc1 [SID315481139] gave: p65 translocation robust z-score 1.23; nuclear/cytoplasmic p65 ratio, rep 1 = 1.44; nuclear/cytoplasmic p65 ratio, rep 2 = 1.63; low cell count flag enough cells to score; inactive.
Cenps [SID315473937] scored p65 translocation robust z-score -2.02; nuclear/cytoplasmic p65 ratio, rep 1 = 1.22; nuclear/cytoplasmic p65 ratio, rep 2 = 1.11; low cell count flag enough cells to score; active.
Against BC016579 [SID315477773], the entry reads p65 translocation robust z-score -0.59; nuclear/cytoplasmic p65 ratio, rep 1 = 1.45; nuclear/cytoplasmic p65 ratio, rep 2 = 1.79; low cell count flag enough cells to score; inactive.
Depletion of Or5al6 [SID315481939] resulted in: p65 translocation robust z-score 0.08; nuclear/cytoplasmic p65 ratio, rep 1 = 1.7; nuclear/cytoplasmic p65 ratio, rep 2 = 1.56; low cell count flag enough cells to score; inactive.
After knock-down of Lce1a2 [SID315474773] the results were p65 translocation robust z-score 0.87; nuclear/cytoplasmic p65 ratio, rep 1 = 1.51; nuclear/cytoplasmic p65 ratio, rep 2 = 1.35; low cell count flag enough cells to score; inactive.
AI931714 [SID315482025] gave p65 translocation robust z-score 0.27; nuclear/cytoplasmic p65 ratio, rep 1 = 1.52; nuclear/cytoplasmic p65 ratio, rep 2 = 1.86; low cell count flag enough cells to score; inactive.
Depletion of Iffo1 [SID315481365] resulted in: p65 translocation robust z-score -0.36; nuclear/cytoplasmic p65 ratio, rep 1 = 1.35; nuclear/cytoplasmic p65 ratio, rep 2 = 1.46; low cell count flag enough cells to score; inactive.
Uhrf2 [SID315476787] gave p65 translocation robust z-score -0.23; nuclear/cytoplasmic p65 ratio, rep 1 = 1.49; nuclear/cytoplasmic p65 ratio, rep 2 = 1.46; low cell count flag enough cells to score; inactive.

Hits (from the list above):
Cenps [SID315473937]: p65 translocation robust z-score = -2.02; nuclear/cytoplasmic p65 ratio, rep 1 = 1.22; nuclear/cytoplasmic p65 ratio, rep 2 = 1.11; low cell count flag = enough cells to score; outcome = active
